The nature of the data set: general procedure: Fmoc solid-phase peptide synthesis; TentaGel S-RAM. The following applies: whole synthesis, scale of the general procedure 1.0 g resin.

“H-His-Gly-Glu-Gly-Thr-Phe-Thr-Ser-Asp-Leu-Ser-Lys-Glu-Met-Glu-Glu-Glu-Ala-Val-Arg-Leu-Phe-Ile-Glu-Trp-Leu-Lys-Asn-Gly-Gly-Pro-Ser-Ser-Gly-Ala-Pro-Pro-Ser-Lys-Lys-Lys-Lys-Lys-Lys-NH2”: the “final purity (method not given)” value is given as “better than 95%”.

Source of the values: US7544657B2 (Zealand Pharma A/S, priority 2002, dated 2009).
